Test results published in PMC7154166.
Positions count from the first letter of the chain named. Names and notes keep the numbering of the source. These are yes or no findings as the source states them, for the method shown. Some results given as binding are weak or reduced against the parent protein; the word gives no strength. Where a sequence is shown, tags or fusion partners need not be part of it.

T1: BD-GL3 (GLABRA3 bHLH protein fused to the GAL4 DNA-binding domain) (Arabidopsis thaliana) (UniProt Q9FN69)
T1 sequence: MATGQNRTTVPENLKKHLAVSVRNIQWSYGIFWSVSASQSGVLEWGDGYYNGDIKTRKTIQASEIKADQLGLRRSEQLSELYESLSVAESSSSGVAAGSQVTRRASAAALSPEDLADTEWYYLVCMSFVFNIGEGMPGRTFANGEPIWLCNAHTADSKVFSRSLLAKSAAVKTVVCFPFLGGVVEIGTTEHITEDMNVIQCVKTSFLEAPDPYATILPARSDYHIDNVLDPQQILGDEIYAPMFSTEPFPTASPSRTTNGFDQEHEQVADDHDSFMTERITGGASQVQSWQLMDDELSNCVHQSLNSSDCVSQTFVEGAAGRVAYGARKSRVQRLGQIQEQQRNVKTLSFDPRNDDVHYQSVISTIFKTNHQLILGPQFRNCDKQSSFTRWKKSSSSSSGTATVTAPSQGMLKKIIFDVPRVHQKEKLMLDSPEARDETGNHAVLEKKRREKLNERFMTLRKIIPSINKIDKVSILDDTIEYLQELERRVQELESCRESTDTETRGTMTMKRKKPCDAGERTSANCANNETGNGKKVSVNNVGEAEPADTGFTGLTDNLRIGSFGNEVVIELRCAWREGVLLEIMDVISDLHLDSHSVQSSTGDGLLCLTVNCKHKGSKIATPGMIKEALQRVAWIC

B1: AD-TTG1(WT) (… TESTA GLABRA1 fused to the GAL4 activation domain) (protein, UniProt Q9XGN1 1-341)
chain: MDNSAPDSLSRSETAVTYDSPYPLYAMAFSSLRSSSGHRIAVGSFLEDYNNRIDILSFDSDSMTVKPLPNLSFEHPYPPTKLMFSPPSLRRPSSGDLLASSGDFLRLWEINEDSSTVEPISVLNNSKTSEFCAPLTSFDWNDVEPKRLGTCSIDTTCTIWDIEKSVVETQLIAHDKEVHDIAWGEARVFASVSADGSVRIFDLRDKEHSTIIYESPQPDTPLLRLAWNKQDLRYMATILMDSNKVVILDIRSPTMPVAELERHQASVNAIAWAPQSCKHICSGGDDTQALIWELPTVAGPNGIDPMSVYSAGSEINQLQWSSSQPDWIGIAFANKMQLLRV
B2: AD-TTG1(ttg1-24) (TTG1 L339F fused to the GAL4 activation domain) (protein, UniProt Q9XGN1 1-341)
chain: B1 chain with L339F
B3: AD-TTG1(ttg1-23) (TTG1 S197F fused to the GAL4 activation domain) (protein, UniProt Q9XGN1 1-341)
chain: B1 chain with S197F

What follows are binders tested against T1, BD-GL3 (GLABRA3 bHLH protein fused to the GAL4 DNA-binding domain) (Arabidopsis thaliana) (assay: two-hybrid; yeast strain AH109; BD-GL3 (pGBT9) with AD-TTG1 fusions (pGAD424); growth on SD/-Trp/-Leu/-His/-Ade with 20 mM 3-AT and β-galactosidase activity assay).

binding	Binder
binds	B1
binds	B2
binds	B3
